Assay results reported in publication PMC10897598, “TwinF interface inhibitor FP802 stops loss of motor neurons and mitigates disease progression in a mouse model of ALS” (Cell Reports Medicine, 2024).
No constants are given. Whether binding was seen depends on the method and setting. Binding seen in cells or lysates may run through a third protein. Some entries that bind do so weakly or less than the wild type.

Chains of the proteins cited; added tags and fusions are not shown. Residues count along the entry.
UniProt Q7TN37: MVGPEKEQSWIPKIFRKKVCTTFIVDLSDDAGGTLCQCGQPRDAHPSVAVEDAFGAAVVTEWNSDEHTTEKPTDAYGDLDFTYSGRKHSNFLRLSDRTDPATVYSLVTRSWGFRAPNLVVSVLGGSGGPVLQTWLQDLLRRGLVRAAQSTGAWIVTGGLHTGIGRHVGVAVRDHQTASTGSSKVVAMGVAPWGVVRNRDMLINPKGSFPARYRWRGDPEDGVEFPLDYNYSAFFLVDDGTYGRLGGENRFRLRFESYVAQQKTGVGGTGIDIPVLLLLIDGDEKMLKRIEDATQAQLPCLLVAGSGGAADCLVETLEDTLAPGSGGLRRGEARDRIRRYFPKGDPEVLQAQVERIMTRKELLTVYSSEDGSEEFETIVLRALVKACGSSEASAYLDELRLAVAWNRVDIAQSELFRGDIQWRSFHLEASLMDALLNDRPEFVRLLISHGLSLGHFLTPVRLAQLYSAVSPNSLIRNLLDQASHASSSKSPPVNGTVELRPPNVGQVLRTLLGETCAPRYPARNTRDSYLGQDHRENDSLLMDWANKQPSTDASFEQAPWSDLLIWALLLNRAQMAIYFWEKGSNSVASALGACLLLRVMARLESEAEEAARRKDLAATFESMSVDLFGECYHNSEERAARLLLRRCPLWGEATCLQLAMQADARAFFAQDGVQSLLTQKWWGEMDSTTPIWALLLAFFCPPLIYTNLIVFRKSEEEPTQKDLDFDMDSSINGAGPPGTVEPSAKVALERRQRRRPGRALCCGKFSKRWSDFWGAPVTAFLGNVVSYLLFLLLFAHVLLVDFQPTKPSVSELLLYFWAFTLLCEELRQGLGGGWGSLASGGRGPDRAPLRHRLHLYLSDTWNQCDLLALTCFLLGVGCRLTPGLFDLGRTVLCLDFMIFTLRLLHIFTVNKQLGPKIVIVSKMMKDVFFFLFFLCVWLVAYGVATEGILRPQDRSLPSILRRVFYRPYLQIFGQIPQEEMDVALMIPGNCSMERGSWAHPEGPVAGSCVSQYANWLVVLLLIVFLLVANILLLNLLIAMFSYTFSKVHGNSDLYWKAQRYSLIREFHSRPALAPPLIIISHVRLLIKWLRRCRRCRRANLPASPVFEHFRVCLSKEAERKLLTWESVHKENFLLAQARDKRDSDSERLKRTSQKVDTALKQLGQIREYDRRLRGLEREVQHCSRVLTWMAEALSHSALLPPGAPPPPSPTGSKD
UniProt Q01097, residues 27-1482: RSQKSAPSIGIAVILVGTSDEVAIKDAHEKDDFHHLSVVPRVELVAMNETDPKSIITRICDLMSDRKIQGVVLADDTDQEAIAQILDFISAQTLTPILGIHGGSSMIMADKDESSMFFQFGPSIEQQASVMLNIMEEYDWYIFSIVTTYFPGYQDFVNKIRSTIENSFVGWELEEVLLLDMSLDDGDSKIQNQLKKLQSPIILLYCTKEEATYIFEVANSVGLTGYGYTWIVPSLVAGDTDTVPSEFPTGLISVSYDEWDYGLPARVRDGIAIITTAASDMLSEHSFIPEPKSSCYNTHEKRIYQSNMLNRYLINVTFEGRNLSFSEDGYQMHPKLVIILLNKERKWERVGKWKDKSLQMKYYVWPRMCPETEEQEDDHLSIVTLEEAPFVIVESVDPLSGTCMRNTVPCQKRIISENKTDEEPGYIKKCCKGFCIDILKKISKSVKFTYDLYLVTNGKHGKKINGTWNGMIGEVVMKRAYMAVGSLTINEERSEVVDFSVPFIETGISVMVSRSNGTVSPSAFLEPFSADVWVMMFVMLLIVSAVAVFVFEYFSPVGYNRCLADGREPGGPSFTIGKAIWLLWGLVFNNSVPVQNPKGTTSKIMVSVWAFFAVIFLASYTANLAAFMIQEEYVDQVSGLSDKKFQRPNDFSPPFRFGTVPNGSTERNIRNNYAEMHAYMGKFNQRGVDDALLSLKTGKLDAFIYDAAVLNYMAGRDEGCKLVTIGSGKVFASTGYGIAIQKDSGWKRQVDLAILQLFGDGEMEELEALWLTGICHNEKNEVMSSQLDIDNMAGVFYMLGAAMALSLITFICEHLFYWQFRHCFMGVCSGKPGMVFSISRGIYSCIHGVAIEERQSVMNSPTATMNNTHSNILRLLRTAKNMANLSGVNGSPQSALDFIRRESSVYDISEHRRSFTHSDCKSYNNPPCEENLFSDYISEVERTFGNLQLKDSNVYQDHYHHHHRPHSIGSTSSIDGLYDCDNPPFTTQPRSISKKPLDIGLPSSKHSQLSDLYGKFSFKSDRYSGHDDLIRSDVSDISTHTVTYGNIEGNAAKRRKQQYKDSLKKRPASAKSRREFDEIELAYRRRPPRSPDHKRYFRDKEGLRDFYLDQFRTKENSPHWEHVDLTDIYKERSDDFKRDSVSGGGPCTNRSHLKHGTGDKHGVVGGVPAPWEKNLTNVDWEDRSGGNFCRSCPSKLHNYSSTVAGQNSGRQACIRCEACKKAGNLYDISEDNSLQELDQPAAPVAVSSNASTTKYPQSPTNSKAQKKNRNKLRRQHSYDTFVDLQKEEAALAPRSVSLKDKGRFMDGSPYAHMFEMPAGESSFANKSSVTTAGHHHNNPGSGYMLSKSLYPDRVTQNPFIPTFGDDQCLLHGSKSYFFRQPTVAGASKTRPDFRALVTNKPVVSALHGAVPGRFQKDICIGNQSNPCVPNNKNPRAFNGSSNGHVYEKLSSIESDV

Molecular target: transient receptor potential cation channel subfamily M member 4 (TRPM4) (mouse (endogenous in lumbar spinal cord)) (UniProt Q7TN37)
Assay: co-IP; anti-TRPM4 antibody and protein A/G magnetic beads; lumbar spinal cord lysates of vehicle-treated mice (ALZET osmotic pump, two weeks); 4°C; 10 mM Tris pH 8.0, 150 mM NaCl, 1 mM EDTA, 1% Triton X-100, 10% glycerol; GluN2B immunoblot

NMDAR subunit GluN2B (from UniProt Q01097 27-1482)
binding: binds
